Data on seven molecules can be found in PMC11193767.

The chains behind the UniProt entries cited, without tags or fusion partners.
UniProt Q8IWT6: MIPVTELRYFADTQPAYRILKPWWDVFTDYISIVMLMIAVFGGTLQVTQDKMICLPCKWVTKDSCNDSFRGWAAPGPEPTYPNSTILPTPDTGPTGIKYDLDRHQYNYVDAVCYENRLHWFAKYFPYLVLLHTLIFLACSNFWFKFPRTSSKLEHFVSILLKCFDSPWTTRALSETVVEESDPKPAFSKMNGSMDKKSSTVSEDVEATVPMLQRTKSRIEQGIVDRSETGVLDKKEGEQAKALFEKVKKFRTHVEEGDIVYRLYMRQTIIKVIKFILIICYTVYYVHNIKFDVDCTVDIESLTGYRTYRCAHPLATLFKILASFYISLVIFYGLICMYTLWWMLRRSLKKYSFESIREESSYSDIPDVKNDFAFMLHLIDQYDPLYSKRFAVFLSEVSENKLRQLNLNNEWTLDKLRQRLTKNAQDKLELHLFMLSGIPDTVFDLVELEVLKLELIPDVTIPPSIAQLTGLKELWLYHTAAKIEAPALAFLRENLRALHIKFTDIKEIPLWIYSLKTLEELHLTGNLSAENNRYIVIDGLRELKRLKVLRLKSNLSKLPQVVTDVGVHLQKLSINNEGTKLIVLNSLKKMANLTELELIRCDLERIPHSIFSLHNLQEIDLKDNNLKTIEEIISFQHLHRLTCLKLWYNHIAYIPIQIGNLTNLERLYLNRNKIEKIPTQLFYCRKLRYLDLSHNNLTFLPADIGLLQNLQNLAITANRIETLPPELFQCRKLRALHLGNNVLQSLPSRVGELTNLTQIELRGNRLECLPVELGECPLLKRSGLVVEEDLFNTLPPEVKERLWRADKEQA

The labels stand for the following.
B1: Large subunit GTPase 1 homolog (protein, UniProt Q9H089 1-658)
chain: MGRRRAPAGGSLGRALMRHQTQRSRSHRHTDSWLHTSELNDGYDWGRLNLQSVTEQSSLDDFLATAELAGTEFVAEKLNIKFVPAEARTGLLSFEESQRIKKLHEENKQFLCIPRRPNWNQNTTPEELKQAEKDNFLEWRRQLVRLEEEQKLILTPFERNLDFWRQLWRVIERSDIVVQIVDARNPLLFRCEDLECYVKEMDANKENVILINKADLLTAEQRSAWAMYFEKEDVKVIFWSALAGAIPLNGDSEEEANRDDRQSNTTKFGHSSFDQAEISHSESEHLPARDSPSLSENPTTDEDDSEYEDCPEEEEDDWQTCSEEDGPKEEDCSQDWKESSTADSEARSRKTPQKRQIHNFSHLVSKQELLELFKELHTGRKVKDGQLTVGLVGYPNVGKSSTINTIMGNKKVSVSATPGHTKHFQTLYVEPGLCLCDCPGLVMPSFVSTKAEMTCSGILPIDQMRDHVPPVSLVCQNIPRHVLEATYGINIITPREDEDPHRPPTSEELLTAYGYMRGFMTAHGQPDQPRSARYILKDYVSGKLLYCHPPPGRDPVTFQHQHQRLLENKMNSDEIKMQLGRNKKAKQIENIVDKTFFHQENVRALTKGVQAVMGYKPGSGVVTASTASSENGAGKPWKKHGNRNKKEKSRRLYKHLDM
B2: Interferon-induced protein with tetratricopeptide repeats 5 (protein, UniProt Q13325-1 1-482)
chain: MSEIRKDTLKAILLELECHFTWNLLKEDIDLFEVEDTIGQQLEFLTTKSRLALYNLLAYVKHLKGQNKDALECLEQAEEIIQQEHSDKEEVRSLVTWGNYAWVYYHMDQLEEAQKYTGKIGNVCKKLSSPSNYKLECPETDCEKGWALLKFGGKYYQKAKAAFEKALEVEPDNPEFNIGYAITVYRLDDSDREGSVKSFSLGPLRKAVTLNPDNSYIKVFLALKLQDVHAEAEGEKYIEEILDQISSQPYVLRYAAKFYRRKNSWNKALELLKKALEVTPTSSFLHHQMGLCYRAQMIQIKKATHNRPKGKDKLKVDELISSAIFHFKAAMERDSMFAFAYTDLANMYAEGGQYSNAEDIFRKALRLENITDDHKHQIHYHYGRFQEFHRKSENTAIHHYLEALKVKDRSPLRTKLTSALKKLSTKRLCHNALDVQSLSALGFVYKLEGEKRQAAEYYEKAQKIDPENAEFLTALCELRLSI
B3: Lipolysis-stimulated lipoprotein receptor (protein, UniProt Q86X29-1 1-649)
chain: MQQDGLGVGTRNGSGKGRSVHPSWPWCAPRPLRYFGRDARARRAQTAAMALLAGGLSRGLGSHPAAAGRDAVVFVWLLLSTWCTAPARAIQVTVSNPYHVVILFQPVTLPCTYQMTSTPTQPIVIWKYKSFCRDRIADAFSPASVDNQLNAQLAAGNPGYNPYVECQDSVRTVRVVATKQGNAVTLGDYYQGRRITITGNADLTFDQTAWGDSGVYYCSVVSAQDLQGNNEAYAELIVLGRTSGVAELLPGFQAGPIEDWLFVVVVCLAAFLIFLLLGICWCQCCPHTCCCYVRCPCCPDKCCCPEALYAAGKAATSGVPSIYAPSTYAHLSPAKTPPPPAMIPMGPAYNGYPGGYPGDVDRSSSAGGQGSYVPLLRDTDSSVASEVRSGYRIQASQQDDSMRVLYYMEKELANFDPSRPGPPSGRVERAMSEVTSLHEDDWRSRPSRGPALTPIRDEEWGGHSPRSPRGWDQEPAREQAGGGWRARRPRARSVDALDDLTPPSTAESGSRSPTSNGGRSRAYMPPRSRSRDDLYDQDDSRDFPRSRDPHYDDFRSRERPPADPRSHHHRTRDPRDNGSRSGDLPYDGRLLEEAVRKKGSEERRRPHKEEEEEAYYPPAPPPYSETDSQASRERRLKKNLALSRESLVV
B4: G protein-regulated inducer of neurite outgrowth 1 (protein, UniProt Q7Z2K8-1 1-1008)
chain: MDTAEDPAWLQLLQKDSSPPGPRPTAFFCPQDGSLGAGSSAMRDYCPSQQKASPAPPRHTPDQSPGMESRHRSPSGAGEGASCSDGPRGSLACPSPTCFSPQESPSKETLEAHGASISGTPEATTSGKPEPVSSVKTEPKSSDDRNPMFLEKMDFKSSKQADSTSIGKEDPGSSRKADPMFTGKAEPEILGKGDPVAPGRMDPMTVRKEDLGSLGKVDPLCSSKTYTVSPRKEDPGSLRKVDPVSSDKVDPVFPRKEEPRYSGKEHPVSSEKVAPTSAEKVDLVLSGKRDPGPSGKADPMPLESMDSASTGKTEPGLLGKLIPGSSGKNGPVSSGTGAPGSLGRLDPTCLGMADPASVGNVETVPATKEDSRFLGKMDPASSGEGRPVSGHTDTTASAKTDLTSLKNVDPMSSGKVDPVSLGKMDPMCSGKPELLSPGQAERVSVGKAGTVSPGKEDPVSSRREDPISAGSRKTSSEKVNPESSGKTNPVSSGPGDPRSLGTAGPPSAVKAEPATGGKGDPLSSEKAGLVASGKAAPTASGKAEPLAVGKEDPVSKGKADAGPSGQGDSVSIGKVVSTPGKTVPVPSGKVDPVSLGKAEAIPEGKVGSLPLEKGSPVTTTKADPRASGKAQPQSGGKAETKLPGQEGAAAPGEAGAVCLKKETPQASEKVDPGSCRKAEPLASGKGEPVSLGKADSAPSRKTESPSLGKVVPLSLEKTKPSSSSRQLDRKALGSARSPEGARGSEGRVEPKAEPVSSTEASSLGQKDLEAAGAERSPCPEAAAPPPGPRTRDNFTKAPSWEASAPPPPREDAGTQAGAQACVSVAVSPMSPQDGAGGSAFSFQAAPRAPSPPSRRDAGLQVSLGAAETRSVATGPMTPQAAAPPAFPEVRVRPGSALAAAVAPPEPAEPVRDVSWDEKGMTWEVYGAAMEVEVLGMAIQKHLERQIEEHGRQGAPAPPPAARAGPGRSGSVRTAPPDGAAKRPPGLFRALLQSVRRPRCCSRAGPTAE
B5: Gamma-adducin (protein, UniProt Q9UEY8-1 1-706)
chain: MSSDASQGVITTPPPPSMPHKERYFDRINENDPEYIRERNMSPDLRQDFNMMEQRKRVTQILQSPAFREDLECLIQEQMKKGHNPTGLLALQQIADYIMANSFSGFSSPPLSLGMVTPINDLPGADTSSYVKGEKLTRCKLASLYRLVDLFGWAHLANTYISVRISKEQDHIIIIPRGLSFSEATASNLVKVNIIGEVVDQGSTNLKIDHTGFSPHAAIYSTRPDVKCVIHIHTLATAAVSSMKCGILPISQESLLLGDVAYYDYQGSLEEQEERIQLQKVLGPSCKVLVLRNHGVVALGETLEEAFHYIFNVQLACEIQVQALAGAGGVDNLHVLDFQKYKAFTYTVAASGGGGVNMGSHQKWKVGEIEFEGLMRTLDNLGYRTGYAYRHPLIREKPRHKSDVEIPATVTAFSFEDDTVPLSPLKYMAQRQQREKTRWLNSPNTYMKVNVPEESRNGETSPRTKITWMKAEDSSKVSGGTPIKIEDPNQFVPLNTNPNEVLEKRNKIREQNRYDLKTAGPQSQLLAGIVVDKPPSTMQFEDDDHGPPAPPNPFSHLTEGELEEYKRTIERKQQGLEDAEQELLSDDASSVSQIQSQTQSPQNVPEKLEENHELFSKSFISMEVPVMVVNGKDDMHDVEDELAKRVSRLSTSTTIENIEITIKSPEKIEEVLSPEGSPSKSPSKKKKKFRTPSFLKKNKKKEKVEA
B6: Lethal(2) giant larvae protein homolog 1 (protein, UniProt Q15334 1-1064)
chain: MMKFRFRRQGADPQREKLKQELFAFNKTVEHGFPNQPSALAFDPELRIMAIGTRSGAVKIYGAPGVEFTGLHRDAATVTQMHFLTGQGRLLSLLDDSSLHLWEIVHHNGCAHLEEALSFQLPSRPGFDGASAPLSLTRVTVVLLVAASDIAALGTEGSSVFFLDVTTLTLLEGQTLAPGEVLRSVPDDYRCGKALGPVESLQGHLRDPTKILIGYSRGLLVIWNQASQCVDHIFLGNQQLESLCWGRDSSTVVSSHSDGSYAVWSVDAGSFPTLQPTVATTPYGPFPCKAINKILWRNCESGGHFIIFSGGMPRASYGDRHCVSVLRAETLVTLDFTSRIIDFFTVHSTRPEDEFDDPQALAVLLEEELVVLDLQTPGWPAVPAPYLAPLHSSAITCSAHVASVPAKLWARIVSAGEQQSPQPVSSALSWPITGGRNLAQEPSQRGLLLTGHEDGTVRFWDASGVALRPLYKLSTAGLFQTDCEHADSLAQAAEDDWPPFRKVGCFDPYSDDPRLGVQKVALCKYTAQMVVAGTAGQVLVLELSDVPVEQAVSVAIIDLLQDREGFTWKGHERLSPRTGPLPWPAGFQPRVLVQCLPPAAVTAVTLHTEWSLVAFGTSHGFGLFDYQRKSPVLARCTLHPNDSLAMEGPLSRVKSLKKSLRQSFRRIRKSRVSGKKRAANASSKLQEANAQLAEQACPHDVEMTPVQRRIEPRSADDSLSGVVRCLYFADTFLRDGAHHGPTMWAGTNSGSVFAYALEVPAAAVGGEKRPEQAVEAVLGKEVQLMHRAPVVAIAVLDGRGRPLPEPYEASRDLAQAPDMQGGHAVLIASEEQFKVFTLPKVSAKTKFKLTAHEGCRVRKVALATFASVACEDYAETCLACLTNLGDVHVFSVPGLRPQVHYSCIRKEDISGIASCVFTRHGQGFYLISPSEFERFSLSARNITEPLCSLDINWPRDATQASYRIRESPKLSQANGTPSILLAPQSLDGSPDPAHSMGPDTPEPPEAALSPMSIDSATSADTTLDTTGDVTVEDVKDFLGSSEESEKNLRNLAEDEAHACAILIK
B7: Insulin receptor substrate 2 (protein, UniProt Q9Y4H2 1-1338)
chain: MASPPRHGPPGPASGDGPNLNNNNNNNNHSVRKCGYLRKQKHGHKRFFVLRGPGAGGDEATAGGGSAPQPPRLEYYESEKKWRSKAGAPKRVIALDCCLNINKRADAKHKYLIALYTKDEYFAVAAENEQEQEGWYRALTDLVSEGRAAAGDAPPAAAPAASCSASLPGALGGSAGAAGAEDSYGLVAPATAAYREVWQVNLKPKGLGQSKNLTGVYRLCLSARTIGFVKLNCEQPSVTLQLMNIRRCGHSDSFFFIEVGRSAVTGPGELWMQADDSVVAQNIHETILEAMKALKELFEFRPRSKSQSSGSSATHPISVPGARRHHHLVNLPPSQTGLVRRSRTDSLAATPPAAKCSSCRVRTASEGDGGAAAGAAAAGARPVSVAGSPLSPGPVRAPLSRSHTLSGGCGGRGSKVALLPAGGALQHSRSMSMPVAHSPPAATSPGSLSSSSGHGSGSYPPPPGPHPPLPHPLHHGPGQRPSSGSASASGSPSDPGFMSLDEYGSSPGDLRAFCSHRSNTPESIAETPPARDGGGGGEFYGYMTMDRPLSHCGRSYRRVSGDAAQDLDRGLRKRTYSLTTPARQRPVPQPSSASLDEYTLMRATFSGSAGRLCPSCPASSPKVAYHPYPEDYGDIEIGSHRSSSSNLGADDGYMPMTPGAALAGSGSGSCRSDDYMPMSPASVSAPKQILQPRAAAAAAAAVPSAGPAGPAPTSAAGRTFPASGGGYKASSPAESSPEDSGYMRMWCGSKLSMEHADGKLLPNGDYLNVSPSDAVTTGTPPDFFSAALHPGGEPLRGVPGCCYSSLPRSYKAPYTCGGDSDQYVLMSSPVGRILEEERLEPQATPGPSQAASAFGAGPTQPPHPVVPSPVRPSGGRPEGFLGQRGRAVRPTRLSLEGLPSLPSMHEYPLPPEPKSPGEYINIDFGEPGARLSPPAPPLLASAASSSSLLSASSPASSLGSGTPGTSSDSRQRSPLSDYMNLDFSSPKSPKPGAPSGHPVGSLDGLLSPEASSPYPPLPPRPSASPSSSLQPPPPPPAPGELYRLPPASAVATAQGPGAASSLSSDTGDNGDYTEMAFGVAATPPQPIAAPPKPEAARVASPTSGVKRLSLMEQVSGVEAFLQASQPPDPHRGAKVIRADPQGGRRRHSSETFSSTTTVTPVSPSFAHNPKRHNSASVENVSLRKSSEGGVGVGPGGGDEPPTSPRQLQPAPPLAPQGRPWTPGQPGGLVGCPGSGGSPMRRETSAGFQNGLNYIAIDVREEPGLPPQPQPPPPPLPQPGDKSSWGRTRSLGGLISAVGVGSTGGGCGGPGPGALPPANTYASIDFLSHHLKEATIVKE

Results are given in words; binding and its absence hold for the method and conditions named. Binding seen in cells or lysates may run through a third protein. Here binding means that the protein was enriched with, or labelled near, the bait; the list need not be complete.

This experiment addresses LRRC8A-BirA*-HA fusion protein (human) (UniProt Q8IWT6). The experiment is described as follows: proximity labelling; BioID: HEK293 cells stably expressing LRRC8A-BirA*-HA (two clones), 50 uM biotin 24 h, RIPA lysis, streptavidin bead pull-down of biotinylated proteins, TMT labelling and LC-MS/MS; hits: FDR <= 0.05 and fold change >= 2 against the no-biotin control.
Take B1: the binding entry was “binds”. As for B2, the binding result is listed as “binds”. Next, B3: “binds”. B4: the binding entry is on record as “binds”. As for B5, the binding result was “binds”.

For B6, the binding result is “binds”. Next, B7: “binds”.
